PubChem BioAssay (Tox21)
“And” between values parts separate entries of the source, which are not always exact repeats. Identical values can stand only once. This list was built around the results that the source calls inconclusive (neither active nor inactive); the mix of calls is not that of the screen. Where the call is inconclusive, the potency comes from a doubtful curve fit. The source made the active and inactive calls. Unless noted, calls follow the shape of the full dose curve.

Amino acid sequences for entries named in this document (tags omitted).
UniProt P14416, whole entry, looked up: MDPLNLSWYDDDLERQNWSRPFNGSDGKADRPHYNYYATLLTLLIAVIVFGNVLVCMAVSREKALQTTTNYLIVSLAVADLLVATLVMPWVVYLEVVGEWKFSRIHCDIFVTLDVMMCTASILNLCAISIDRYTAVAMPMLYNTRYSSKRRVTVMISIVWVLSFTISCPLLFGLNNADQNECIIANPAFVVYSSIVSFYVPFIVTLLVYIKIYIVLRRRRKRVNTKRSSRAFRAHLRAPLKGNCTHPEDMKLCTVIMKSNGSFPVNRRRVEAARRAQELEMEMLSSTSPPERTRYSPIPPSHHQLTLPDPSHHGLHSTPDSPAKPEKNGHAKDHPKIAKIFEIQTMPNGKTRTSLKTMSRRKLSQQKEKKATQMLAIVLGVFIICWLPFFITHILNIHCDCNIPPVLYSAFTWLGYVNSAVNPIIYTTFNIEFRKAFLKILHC

What was measured:
[1] = molecular target: Beta-2 adrenergic receptor (Homo sapiens) (UniProt P07550); experiment: Adrenergic beta2 receptor (ADRB2) small molecule agonists, cell-based qHTS assay (AID 1963593); settings: CHO-ADRB2 cells, cAMP HTRF, 30 min;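 as to activation: CHO cells stably overexpressing human ADRB2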
Procedure, shortened: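 CHO cells stably over-expressing ADRB2 were plated overnight at 37C, then dosed with compounds plus a stimulation mix containing 100uM IBMX and 25uM Ro-20-1724 for 0.5hr at room temperature. cAMP was measured by HTRF competition, 1hr.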

[2] = molecular target: D(2) dopamine receptor (Homo sapiens) (UniProt P14416); experiment: Dopamine D2 receptor (DRD2) small molecule agonists, cell-based qHTS assay (AID 1963594); settings: HEK293-DRD2 cAMP HTRF, agonist mode, 30 min; activation: at 92.4 µM (top of the series) unless noted; also: nearly all actives have a fitted effect of over 35% in size
Procedure, shortened: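 HEK293 cells stably expressing human DRD2, pre-treated with PDE inhibitor Ro20-1724 (0.1 mM final) and compound 10 min at room temperature, then stimulated with NKH477 (200nM […]) for 30 min. cAMP read by HTRF (665/620 nm).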

[3] = molecular target: D(2) dopamine receptor (Homo sapiens) (UniProt P14416); experiment: Dopamine D2 receptor (DRD2) small molecule antagonists, cell-based qHTS assay (AID 1963595; active = well fitted inhibition curve with a large enough effect in the signal ratio in the repeat runs, with a control signal flat; inconclusive = weak or mixed curves, or effect the other way; the % refers to the signal ratio); settings: HEK293-DRD2 cAMP HTRF antagonist mode; activity change, negative = inhibition: at 92.4 µM (top of the series) unless noted
Procedure, shortened: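 Human DRD2 antagonist qHTS measuring cAMP by HTRF. The cells are exposed to compound for 10 min, then to NKH477 (200 nM) and quinpirole (12 nM) for 30 min at RT, with Ro20-1724 (0.1 mM) present throughout.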

[4] = activation: at 92.4 µM (top of the series) unless noted
% is scaled to controls: 0 for no effect and ±100 for the full control effect; potency is read from the fitted curve at half-maximal effect.

**Q.** With `CC(C)(C)c1ccc(CCOc2ncnc3ccccc23)cc1` as the molecule, how does the activation [1, 4] read?
**A.** inconclusive: -6.71%

**Q.** For `Cl/C=C/CCl`, which activation [1, 4] is on record?
**A.** inconclusive: 0.494%

**Q.** How did the Potency [1, 4] turn out when `C=CCN1CC[C@]23CCCC[C@H]2[C@H]1Cc1ccc(O)cc13` was run?
**A.** inactive

**Q.** With `CCCCN(CCCC)N=O` as the molecule, how does the activation [1, 4] read?
**A.** inconclusive: -11.8%

**Q.** How did the Potency [1, 4] turn out when `Cc1cnc[nH]1` was run?
**A.** inactive

**Q.** `CC(C)=CC1C(C(=O)OC(C#N)c2cccc(Oc3ccccc3)c2)C1(C)C` (configuration not stated) was tested. Which Potency [1, 4] did it give?
**A.** inconclusive: 27.3 µM [inhibitor, single point]

**Q.** For `CC(O)CCl` (configuration not stated), which activation [1, 4] is on record?
**A.** inconclusive: 8.32%

**Q.** How did the Potency [1, 4] turn out when `Cc1ccc(Cl)c(O)c1` was run?
**A.** inconclusive: 0.298 µM [inhibitor, single point]

**Q.** `Cc1ccc2ccccc2c1` was tested. Which Potency [1, 4] did it give?
**A.** inactive

**Q.** `CCC(C)(C#N)N=NC(C)(C#N)CC` (configuration not stated) was tested. Which Potency [1, 4] did it give?
**A.** inactive

**Q.** How did the activation [1, 4] turn out when `CCOC(=O)N(C)N=O` was run?
**A.** inconclusive: 6.43%

**Q.** `C=CC(=O)OCC(C)C` was tested. Which activation [1, 4] did it give?
**A.** inconclusive: 3.11%

**Q.** `CCCCC(=O)Cl` was tested. Which Potency [1, 4] did it give?
**A.** inactive

**Q.** How did the activation [1, 4] turn out when `CC[N+]1(CCOC(=O)C(O)(c2ccccc2)c2ccccc2)CCCCC1` was run?
**A.** inconclusive: -1.19% [at 42.5 µM]

**Q.** How did the Potency [1, 4] turn out when `CC1(C)C(=O)NC(=O)NC1=O` was run?
**A.** inactive

**Q.** How did the activation [1, 4] turn out when `CC(N)=S` was run?
**A.** inconclusive: 40.1%

**Q.** For `CCCCN(CCCCO)N=O`, which activation [1, 4] is on record?
**A.** inconclusive: -36.3%

**Q.** With `C[C@]12CC[C@H]3[C@@H](CC=C4C[C@@H](O)CC[C@@]43C)[C@@H]1CC[C@@H]2O` as the molecule, how does the activation [1, 4] read?
**A.** inconclusive: -0.516% [at 42.5 µM]

**Q.** For `O=C1CN=C(c2ccccc2)c2cc([N+](=O)[O-])ccc2N1`, which activation [1, 4] is on record?
**A.** inconclusive: 18.3% [at 42.5 µM]

**Q.** Which Potency [1, 4] does the source give for `CC[C@H](N)c1ccccc1` here?
**A.** inconclusive: 68.6 µM [inhibitor, single point]

**Q.** Which Potency [1, 4] does the source give for `C#CC(C)(C)O` here?
**A.** inactive

**Q.** With `C=CCCl` as the molecule, how does the activation [1, 4] read?
**A.** inconclusive: 51.7%

**Q.** With `O=[N+]([O-])c1cccc2ccccc12` as the molecule, how does the activation [1, 4] read?
**A.** inconclusive: 0.545% and inconclusive: 11.2%

**Q.** `O=[N+]([O-])c1cccc(O)c1` was tested. Which activation [1, 4] did it give?
**A.** inconclusive: 16.4%

**Q.** `CCC1(CCC(C)C)C(=O)NC(=O)NC1=O` was tested. Which activation [1, 4] did it give?
**A.** inconclusive: 0.681%

**Q.** With `C=CCOC(N)=O` as the molecule, how does the Potency [1, 4] read?
**A.** inactive

**Q.** Which Potency [1, 4] does the source give for `Nc1c(Oc2ccccc2)cc(O)c2c1C(=O)c1ccccc1C2=O` here?
**A.** inconclusive: 0.298 µM [inhibitor, partial curve, poor fit]

**Q.** How did the activation [1, 4] turn out when `CCc1ccccc1N` was run?
**A.** inconclusive: 3.14%

**Q.** For `CC(C)(CCl)C(=O)Cl`, which activation [1, 4] is on record?
**A.** inconclusive: 18.8%

**Q.** `COc1cccc(C=O)c1` was tested. Which Potency [1, 4] did it give?
**A.** inconclusive: 0.0043 µM [inhibitor, full curve]

**Q.** Which activation [1, 4] does the source give for `C=CCc1cc(OC)c2c(c1)OCO2` here?
**A.** inconclusive: 1.39%

**Q.** For `CC(C)(c1ccccc1)c1cc(-n2nc3ccccc3n2)c(O)c(C(C)(C)c2ccccc2)c1`, which activation [1, 4] is on record?
**A.** inconclusive: 45.9% [at 42.5 µM]

**Q.** Which activation [1, 4] does the source give for `Clc1cccc2ccccc12` here?
**A.** inconclusive: 24.6%

**Q.** Which Potency [1, 4] does the source give for `CNN` here?
**A.** inactive

**Q.** With `Oc1ccc(Cl)cc1` as the molecule, how does the activation ([1]; at 42.5 µM (top of the series)) read?
**A.** inactive: -29.8%

**Q.** And the activation [2]?
**A.** inconclusive: 28.2% [at 42.5 µM]

**Q.** For `C1=Cc2cccc3cccc1c23`, which activation [2] is on record?
**A.** inconclusive: -6.58%

**Q.** How did the Potency [3] turn out when `Nc1ccccc1C(=O)OCC(O)CO` (configuration not stated) was run?
**A.** inactive

**Q.** For `CCCCOP(=O)(O)OCCCC`, which Potency [2] is on record?
**A.** inactive

**Q.** Which Potency [1, 4] does the source give for `Nc1ccc(Sc2ccc(N)cc2)cc1` here?
**A.** inconclusive: 61.1 µM [inhibitor, partial curve]

**Q.** And the Potency [2]?
**A.** inconclusive: 0.208 µM

**Q.** With `O=[N+]([O-])c1ccccc1Cl` as the molecule, how does the Potency [1, 4] read?
**A.** inactive

**Q.** What about the Potency [2] of the same molecule?
**A.** inactive

**Q.** With `CN1C(=O)CCS(=O)(=O)C1c1ccc(Cl)cc1` (configuration not stated) as the molecule, how does the activation [1, 4] read?
**A.** inconclusive: 1.65% [at 42.5 µM]

**Q.** And the activity change, negative = inhibition [3]?
**A.** inconclusive: 2.35% [at 42.5 µM]

**Q.** How did the Potency [3] turn out when `Clc1ccc(C2(Cn3cncn3)OCCO2)c(Cl)c1` was run?
**A.** inactive

**Q.** How did the Potency [1, 4] turn out when `CC(C)(C)OOC(C)(C)CCC(C)(C)OOC(C)(C)C` was run?
**A.** inactive

**Q.** And the activation [2]?
**A.** inconclusive: -41.3%

**Q.** Which results are given for `N#Cc1cccnc1`?
**A.** Potency [1, 4]: inconclusive: 2.73 µM [inhibitor, partial curve, poor fit]; activation [1, 4]: inconclusive: 1.76%; activation [2]: inconclusive: 0.948%

**Q.** For `O=[N+]([O-])[O-].[Tl+]`, which activation [1, 4] is on record?
**A.** inconclusive: 2.19%

**Q.** And the Potency [2]?
**A.** inconclusive: 22.8 µM [falling, partial curve, poor fit]

**Q.** Which results are given for `ClC1(Cl)C2(Cl)C3(Cl)C4(Cl)C(Cl)(Cl)C5(Cl)C3(Cl)C1(Cl)C5(Cl)C24Cl` (configuration not stated)?
**A.** activation [1, 4]: inconclusive: 16.4%; activity change, negative = inhibition [3]: inconclusive: 3.06%

**Q.** `C[C@@H]1CN(C2CCC(C#N)(c3ccc(F)cc3)CC2)CC[C@]1(C(=O)O)c1ccccc1` (some centres not stated) was tested. Which Potency [1, 4] did it give?
**A.** inconclusive: 18.8 µM [inhibitor, single point]

**Q.** What about the Potency [3] of the same molecule?
**A.** inconclusive: 33.5 µM [inhibitor, partial curve, poor fit]

**Q.** Which results are given for `CNC(=O)NC(O)C(Cl)(Cl)Cl` (configuration not stated)?
**A.** Potency [1, 4]: inactive; Potency [3]: inconclusive: 0.133 µM [cytotoxic, single point]

**Q.** With `Cc1ccc(C)c2ccccc12` as the molecule, how does the activity change, negative = inhibition [3] read?
**A.** inconclusive: -45%

**Q.** Which results are given for `c1ccc(Nc2ccc(Nc3ccccc3)cc2)cc1`?
**A.** activation [1, 4]: inconclusive: -87.7%; Potency [2]: inconclusive: 49.4 µM

**Q.** With `Cc1ccc(N)cc1` as the molecule, how does the Potency [1, 4] read?
**A.** inconclusive: 61.5 µM [inhibitor, single point] and inactive

**Q.** And the activity change, negative = inhibition [3]?
**A.** inconclusive: -20.3%

**Q.** How did the Potency [1, 4] turn out when `BrCCCBr` was run?
**A.** inactive

**Q.** What about the activity change, negative = inhibition [3] of the same molecule?
**A.** inconclusive: 16.2%

**Q.** How did the Potency [3] turn out when `CC(C)OC(=O)Nc1ccccc1` was run?
**A.** inactive
